Results from patent US4550078A, “Method for the quantitative determination of individual polyamine components in a mixture” (Amano Seiyaku Kabushiki Kaisha, priority 1982, dated 1985).

Key:
[1] = Example 1: determination of 7 polyamines in a known aqueous mixture, steps A1 to G1; details: calculated concentration 20.0 μM each
[2] = Example 4: determination of 6 polyamines in a known mixture with control plasma solution, steps A3 to F3; details: expected 40 μM each
[3] = Example 5: determination of 5 polyamines in a known mixture, steps A4 to E4; details: expected 10.0 μM each
[4] = Example 7: determination of 4 polyamines in a known mixture of 7, steps A6 to D6; details: expected 20.0 μM each
[5] = Example 6: determination of 4 polyamines in a known mixture of 7, steps A5 to D5; details: expected 20.0 μM each
[6] = Example 11: alternative analysis of human urine with acid deacetylation, steps A10 to F10

SMILES	molar concentration found in the photometric solution [1] [µM]	molar concentration found in the photometric solution [2] [µM]	molar concentration found in the photometric solution [3] [µM]	molar concentration found in the photometric solution [4] [µM]	molar concentration found in the photometric solution [5] [µM]	Concentration in the urine [6] [µM]
CC(=O)NCCCCNCCCN [N^8 -acetylspermidine]	19.2	38.7	9.6	19.2		
NCCCCN [putrescine]	20.0	39.5	10.1	20.0	19.7	4.1
NCCCCNCCCN [spermidine]	20.0	39.4	10.1	20.0	20.3	3.2
NCCCNCCCCNCCCN [spermine]	20.0	40.0	10.0	20.0	19.8	2.4
